Experimental data taken from PubChem BioAssay AID602296 (Broad Institute, 2012).
The campaign covered roughly 2,000 compounds. About 190 (9.5%) were called active. Another 14% or so got no clear call; they are omitted.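 The calls were made as follows: active = fitted activation curve crossing 40% at a concentration no higher than the sample's top valid tested dose; inconclusive = flat fitted curve at 30% to 70% activation, or poor curve fit; inactive = signal decrease, flat curve within 30%, or the rest.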 This part holds few or none of the hits.

Experiment: HSF-1 reporter activators over prolonged exposure, confirmation, cell-based, mouse, luciferase, cherry-pick, dose (AID 602296);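 also: test compounds applied by themselves with no MG132 co-treatment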
Conditions: NIH3T3-HGL HSF-1 response element luciferase, 48 h; at 26 µM (top of the series) unless noted

activation, inactive:
CCOC(=O)N1CCC(NC(=O)c2cccs2)CC1 -11.4%
CCN(CC)S(=O)(=O)c1ccc(N2CCOCC2)c(NC(=O)c2cc3ccccc3oc2=O)c1 -9.23%
COC(=O)c1ccccc1NC(=S)N(Cc1ccc2c(c1)OCO2)Cc1cc2ccc(OC)cc2[nH]c1=O -6.89%
CC1CCN(C(c2ccc(N(C)C)cc2)c2nnnn2Cc2ccccc2)CC1 (stereo unspecified) -12.3%
N#Cc1c(NC(=O)CSc2nnc(-c3ccccc3)o2)sc2c1CCCC2 12.1%
COc1cc(C(=O)NCCc2ccc(F)cc2)ccc1OCC(=O)N1CCOCC1 2.48%
CCC1C(=NO)C(CC)C(c2ccccc2)NC1c1ccccc1 (stereo unspecified) -80.8%
COc1ccc(-c2nnc(Nc3ccc(CC(N)=O)cc3)c3ccccc23)cc1 -7.72%
CC(C)CN(C(=O)c1cccs1)C1CCS(=O)(=O)C1 (stereo unspecified) -11.8%
Cc1nn(-c2cccc(Cl)c2)c2c1C(c1ccncc1)C(C#N)=C(N)O2 (stereo unspecified) -24.3%
COc1ccc(-c2c(C)nn3c(Cl)c(C)c(C)nc23)cc1 -0.691%
CCNc1ccc(S(=O)(=O)N(C)C)cc1NCC(=O)Nc1ccccc1Br -25.4%
N#Cc1ncc(Cc2ccccc2)nc1C#N -35%
CC(=O)NCCn1ccc2ccccc21 7.55%
Cc1ccccc1N(C(=O)c1csnn1)C(C(=O)NC(C)(C)C)c1ccncc1 (stereo unspecified) 14.5%
O=C(Cn1nc(-c2ccccc2Cl)ccc1=O)Nc1ccccc1-c1ccccc1 -21.6%
O=C(COC(=O)c1ccccc1C(=O)c1ccccc1)Nc1cccc([N+](=O)[O-])c1 -14.3% [at 12 µM]
c1ccc(-c2nc(NCc3cccnc3)c3oc4ccccc4c3n2)cc1 -4.47%
O=S(=O)(c1ccc(Oc2ccccc2)cc1)N1CCOCC1 -20.1%
CC(C)[C@H](NC(N)=O)C(=O)NNC(=O)COc1cccc(C(F)(F)F)c1 6.56%
O=S(=O)(NC1c2cccc3cccc(c23)C1N1CCNCC1)c1ccc(Cl)cc1 (stereo unspecified) -6.13%
COCCN(CCOC)c1nc(-c2ccc(C)cc2)nc2ccccc12 -14.3%
Cc1ccc(S(=O)(=O)NCCOc2nc(N3CCOCC3)nc(N3CCOCC3)n2)cc1 -2.81%
CC(Oc1ccc(Cl)cc1)C(=O)/C=C/N(C)C (stereo unspecified) -17.7%
Clc1ccc(CO/N=C/c2c(-c3ccccc3)nc3n2CCS3)c(Cl)c1 -67.9%
CCOC(=O)CN1CCC(c2cc(-c3ccc(Cl)cc3)n[nH]2)CC1 5.04%
Cc1c(N=C2SCC(=O)N2/N=C\c2ccc(Br)cc2)c(=O)n(-c2ccccc2)n1C -7.73%
CCCn1c(C)nc2c(c1=O)c1nc3ccccc3nc1n2CCC1=CCCCC1 -20.8%
Cn1c(SCc2cccc(C(F)(F)F)c2)nnc1-c1ccco1 6.26%
Cc1cc(C)n(Cc2ccc(Cl)cc2Cl)c(=O)c1S(=O)(=O)c1ccccc1 -5.83%
ClC(Cl)(Cl)c1nc2ccccc2n2nncc12 -92.4%
CCc1ccccc1NC1=NCC(=O)N1C1CCCCC1 -15.7%
CCOc1ccccc1CN1CCN(Cc2cn(C)nc2-c2ccccc2)CC1CCO (stereo unspecified) 11.8%
COC(=O)c1cc2c(ccn2-c2ccc(F)cc2)n1Cc1ccc(C#N)cc1 -15%
C=CCNC(=O)CSc1nnc(C(CC)N(C)C)n1C1CCCCC1 (stereo unspecified) 6.83%
Clc1ccc(N=c2ssnc2Cl)nc1 20%
CCCCOCCCN1CC(=O)N2[C@@H](Cc3c([nH]c4ccccc34)C2(C)C)C1=O -3.37%
O=C1CC(c2ccc(Cl)cc2)n2nc(NS(=O)(=O)c3ccc(F)cc3)nc2N1 (stereo unspecified) 2.36%
Cn1c(CNc2cccc(Cl)c2)nnc1SCC#N -6.44%
Cc1ccc(C)c(NC2CCCCC2NS(=O)(=O)c2ccccc2)c1 (stereo unspecified) -16.6%
Cc1cc(N(C)C)c(C#N)c(NCc2ccccc2)n1 -12.7%
c1ccc2c(C3=NNC(=NC4CC4)SC3)c[nH]c2c1 -91.2%
CCC(CC)COC(=O)C1=C(C)NC(=O)NC1c1cc(OC)ccc1OC (stereo unspecified) -49.7%
O=C(C1=C[C@@H](C2CC2)C[C@@H](OCc2ccc(CO)cc2)O1)N1CCN(Cc2ccccc2)CC1 -34.9%
C=CCn1c(SCC(=O)NC2CCCC2)nc2scc(-c3ccco3)c2c1=O -12.3%
O=c1[nH]c(CSc2ccccn2)nc2c1oc1ccccc12 -99.2%
CC(NC(=O)CCCN1C(=O)c2ccccc2C1=O)c1ccc2c(c1)CCCC2 (stereo unspecified) -3.36%
Cc1nn(-c2ccccc2)c2sc(C(=O)N(Cc3ccco3)C(C)C(=O)NC(C)(C)C)cc12 (stereo unspecified) -69.8%
CC(=O)Cc1cc(O)c2ccccc2c1OC(=O)c1ccccc1 9.89%
CCN1CCSc2ccc(C(=O)NCc3cccc(Br)c3)cc21 -27.4%
Cc1nc(CN2CCN(Cc3nc(C(c4ccccc4)c4ccccc4)no3)CC2)cs1 -11.6%
CCCCN(CC)c1nc(N)c2c(N)nc(OCC)cc2c1C#N -8.49%
CCOC(=O)c1cnc(-c2ccccc2)nc1Oc1ccc(C)cc1 20.7%
COc1ccc(NC(=O)CN(C)S(=O)(=O)c2ccc(Br)s2)cc1OC -3.57%
COC(=O)C1=C(C)NC2=C(C(=O)CC(C)(C)C2)C1c1cn(Cc2ccc(Br)cc2)nc1-c1ccccc1 (stereo unspecified) -41.5%
Cc1ccc(NC(=O)c2sc3ncn(CC(=O)N4CCOCC4)c(=O)c3c2C)c(Br)c1 -7.54%
COc1ccc(NC(=O)c2[nH]c(C)c(C(C)=O)c2C)cc1S(=O)(=O)Nc1ccc(Br)cc1 -28.5%
Cc1cc(C)cc(NC(=O)CN2C(=O)NC(C)(c3ccccc3)C2=O)c1 (stereo unspecified) -8.91%
Cc1ccc(-n2nc3c(c2NC(=O)c2ccc4c(c2)OCO4)CSC3)c(C)c1 7.18%
CCC(c1nnnn1Cc1ccco1)N(Cc1cc2cc(OC)ccc2[nH]c1=O)C1CCCCC1 (stereo unspecified) -28.1%
O=[N+]([O-])c1c(Nc2ccccc2O)cc(Cl)c2nonc12 -109%
Fc1ccc(-c2nc(-c3cnccn3)no2)c(Cl)c1 -77.6%
COC(=O)c1c(C)oc2ccc(N(C(=O)Oc3ccccc3)S(=O)(=O)c3ccccc3)cc12 -33.5% [at 12 µM]
C/C(=N\Nc1nc(C)cc(-c2ccccc2)n1)c1ccc(C)o1 3.52%
COc1ccc(Cl)cc1N1C(=O)/C(=C\c2sccc2C)N=C1SCC(=O)NC1CC1 -11.2%
CCn1c(SC)nnc1C1CCCN(CC(=O)Nc2ccccc2N2CCOCC2)C1 (stereo unspecified) -7.41%
O=C1CC(N2CCC(c3nc4ccccc4[nH]3)CC2)C(=O)N1c1ccccc1F (stereo unspecified) -18.8%
COc1ccc(S(=O)(=O)N[C@@H](Cc2ccccc2)C(=O)N2CC[C@@]3(O)CCCC[C@H]3C2)cc1 -0.963%
Cc1ccc(C(=O)NCC(C)NC(=O)c2ccc(C)c([N+](=O)[O-])c2)cc1[N+](=O)[O-] (stereo unspecified) 3.13%
CNC(=S)NCCC(c1ccccc1)c1ccccc1 -6.46%
CC(=O)OC(C)C(=O)NS(=O)(=O)c1ccc(C)cc1 (stereo unspecified) -18.8%
CCOC(=O)c1c(NC(=O)c2nn(CC)cc2Br)c(C#N)nn1-c1ccccc1 -52.7%
CCOc1ccc(C(=O)NC2CC3CCCC(C2)N3CC(C)C)cc1 (stereo unspecified) -2.9%
Cc1cccc(OCC(=O)Nc2ccc3c(c2)nc(CCN2CCCCC2)n3C)c1 -7.85%
CC(=O)Oc1c(Cl)cc(N(C(C)=O)S(=O)(=O)c2ccccc2)c2ccccc12 -23.1%
CC1=CN2C(=N)/C(=C/c3ccc([N+](=O)[O-])o3)C(=O)N=C2S1 -102%

Retrieved by compound from above (2):
activation, inactive:
COC(=O)c1ccccc1NC(=S)N(Cc1ccc2c(c1)OCO2)Cc1cc2ccc(OC)cc2[nH]c1=O -6.89%
CCc1ccccc1NC1=NCC(=O)N1C1CCCCC1 -15.7%

4 successive records from above, quoted:
activation, inactive:
Cc1nn(-c2ccccc2)c2sc(C(=O)N(Cc3ccco3)C(C)C(=O)NC(C)(C)C)cc12 (stereo unspecified) -69.8%
CC(=O)Cc1cc(O)c2ccccc2c1OC(=O)c1ccccc1 9.89%
CCN1CCSc2ccc(C(=O)NCc3cccc(Br)c3)cc21 -27.4%
Cc1nc(CN2CCN(Cc3nc(C(c4ccccc4)c4ccccc4)no3)CC2)cs1 -11.6%
